Results are given in words; binding and its absence hold for the method and conditions named. In cells and extracts the contact can be indirect. Here binding means that the protein was enriched with, or labelled near, the bait; the list need not be complete. Blank lines part the entries; values can stand above or below the binder they belong to.
Columns and labels:
[1] = molecular target: Kastor with a COOH-terminal FLAG tag, from Kastor^FLAG/+ knock-in mice (mouse (endogenous in testis)) (UniProt Q8C5Y2); assay: affinity purification with mass spectrometry; lysates of testis of Kastor^FLAG/+ or Polluks^FLAG/+ mice (50 mM Tris-HCl pH 7.5, 150 mM NaCl, 1% Triton X-100); anti-FLAG M2 affinity gel, 90 min at 4 °C; eluted with FLAG peptide; SDS-PAGE, silver staining, in-gel digestion, LC-MS/MS
[2] = molecular target: Polluks with a COOH-terminal FLAG tag, from Polluks^FLAG/+ knock-in mice (mouse (endogenous in testis)); assay: as above

Protein sequences, listed by entry. Tags and fused reporters are not part of them. Lines headed by an entry give the natural chain unless they say otherwise; changes in a name come on top.
UniProt Q8C5Y2: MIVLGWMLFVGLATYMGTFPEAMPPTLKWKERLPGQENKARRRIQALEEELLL

binding [1]: binds
binding [2]: binds
B1: armadillo repeat-containing 12 (ARMC12), endogenous in mouse testis (protein, UniProt Q80X86 1-340)
chain: MGKTIPRFLEQLDLIKSFVGLATGAGALYLLYKAVRTGLKCHPPLCSNSPICIARLAIERERHGRDSGEIRRLLNSLDCKQDEYTRSMILHNITRCVYLLEAEASSCTMDDIDLVADMLDEKDNSVKIQALNALKAFSGIRKFRLKIQEHCIKVLELISTIWDLELHVAGLRLLNNLPLPDYVHPQLRRVMPALMEIIQSDCILAQVQAVRLLSYLAQKNDLLYDILNCQVRPNFLNLFQSSQPGSLLFEVLVFAEHLSEGRNATHYRAVKWHYNEQSLHEALFGDESRLADRLLSLVIHPEEEVQIQACKVIVSLQCPQDLGSRPSSCRPSHSCFKTGK

binding [1]: binds
binding [2]: binds
B2: glycerol kinase 2 (GK2), endogenous in mouse testis (protein, UniProt Q9WU65 1-554)
chain: MAASKQTSAGPLVGAVVQGTNSTRFLVFNSKTAELVCSHQVELTQEYPKEGWVEQDPKEILKSVYECIAKACEKLAEVNIDISNIKAIGVSNQRETTVVWDKFTGDPLYNAVVWLDLRTQSTVETLTKKIPGNSNFVKSKTGLPLSTYFSAVKLRWMLDNLRPIQKAVEEGRAMFGTIDSWLIWCMTGGVNGGIHCTDVTNACRTMLFNIHSLEWDKDLCDFFEIPMSILPNVCSSSEIYGLMTSGALEGVPISGCLGDQSAALVGQMCFHEGQAKNTYGTGCFLLCNTGQKCVFSEHGLLTTLAYKLGKNKPVFYALEGSVAIAGAVIRWLRDNFEIITTSGEVENLAREVGTSYGCYFVPAFSGLYAPYWEPSARGIICGLTQFTNKCHIAFAALEAVCFQTREILDAMNRDCGIPLSHLQVDGGMTNNRILMQLQADILHIPVVKSVMPETTALGAAMAAGAAEGVNVWSLEPEDLSTILMERYEPQIQATESEIRFSTWKRAVMKSMGWVTAKDPENGDNPVFSCLPLGFFIVSSMTLLIGARCVSTAEE

binding [1]: binds
binding [2]: binds
B3: TBC1 domain family member 21 (TBC1D21), endogenous in mouse testis (protein, UniProt Q9D9D3 1-336)
chain: MTTLSPENSLSARRSATFILEKRNPPIDKAEWDSFFDENGHLAKSRDFICINILERGLHPFVRTEAWKFLTGYYSWQSSRDERLMVDSNRRRNYNSLCQMYEKIQPLLENLHGNFTETRNNIAYDIQRLYDKDPLGNVLIDKKKLEKTLLLSYVCNTKAEYQRGFHEMVMLFQLMVEHDHETFWLFQFFLQKTEHSCVINIGVGKNLDMLNSLITLLDPEFAEHLKGKGSGAVQSLFPWFCLCFQRAFKTFDDVWRLWEVLLTGKPCRNFQVLVAYSMLQMVREQALLECMSGDAILMACNNLIDLDADELISAACVVYSELMQKEVPQPLKEFLL

Source: publication PMC8885739
